Paper PMC8034388
Where two headings read alike, the source gives them in different places. These are yes or no findings as the source states them, for the method shown. In cells and extracts the contact can be indirect. Some entries that bind do so weakly or less than the wild type. For some of these results: Tags and fused reporters may be left off the sequences shown.

Chains of the proteins cited; added tags and fusions are not shown.
UniProt Q15365: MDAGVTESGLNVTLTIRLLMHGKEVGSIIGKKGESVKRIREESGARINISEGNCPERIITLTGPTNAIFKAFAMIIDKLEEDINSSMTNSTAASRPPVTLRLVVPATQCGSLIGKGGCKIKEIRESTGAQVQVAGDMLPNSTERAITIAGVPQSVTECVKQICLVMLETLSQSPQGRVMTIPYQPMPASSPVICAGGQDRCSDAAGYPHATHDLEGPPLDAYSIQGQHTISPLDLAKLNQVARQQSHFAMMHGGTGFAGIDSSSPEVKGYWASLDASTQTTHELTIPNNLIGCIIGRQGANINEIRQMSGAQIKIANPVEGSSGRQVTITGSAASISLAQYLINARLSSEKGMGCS
UniProt O00327: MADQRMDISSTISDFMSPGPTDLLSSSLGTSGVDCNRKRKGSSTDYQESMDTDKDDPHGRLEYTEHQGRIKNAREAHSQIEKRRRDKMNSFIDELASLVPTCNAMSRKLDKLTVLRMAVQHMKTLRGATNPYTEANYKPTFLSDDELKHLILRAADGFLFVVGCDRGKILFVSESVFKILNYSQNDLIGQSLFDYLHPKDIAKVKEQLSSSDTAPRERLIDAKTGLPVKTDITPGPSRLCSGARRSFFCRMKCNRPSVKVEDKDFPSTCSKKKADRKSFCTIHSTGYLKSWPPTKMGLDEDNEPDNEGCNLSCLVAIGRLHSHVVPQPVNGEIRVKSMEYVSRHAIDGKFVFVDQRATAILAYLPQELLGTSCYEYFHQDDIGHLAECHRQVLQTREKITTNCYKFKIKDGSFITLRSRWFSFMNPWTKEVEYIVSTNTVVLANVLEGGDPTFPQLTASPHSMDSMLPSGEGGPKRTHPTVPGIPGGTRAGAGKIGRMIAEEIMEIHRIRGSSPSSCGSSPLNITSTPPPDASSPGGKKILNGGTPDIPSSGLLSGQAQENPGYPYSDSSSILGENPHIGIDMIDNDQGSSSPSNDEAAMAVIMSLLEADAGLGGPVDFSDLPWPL

How the values were obtained:
[1] = target: PCBP1 with HA-tag (UniProt Q15365); assay: co-IP; HEK293T lysates 24 h after transfection; lysis buffer 50 mM Tris-HCl pH 7.5, 150 mM NaCl, 1% NP-40; precipitated with HA or FLAG-agarose beads, washed three times, blotted with anti-Flag and anti-HA
[2] = target: poly(C)-binding protein 1 (PCBP1) fused to a luciferase fragment (UniProt Q15365); assay: split reporter; luciferase complementation: N-terminal and C-terminal luciferase fragments fused to the two proteins, co-expressed in HEK293T cells, read 24 h after transfection with the Dual-Luciferase Reporter Assay System; CLOCK with CRY1 also tested with co-expressed BMAL1 or PCBP1 and in siBMAL1, siCRY1 or siPCBP1 cells
[3] = target: PCBP1 with HA-tag (UniProt Q15365); assay: co-IP; HEK293T lysates 24 h after transfection; lysis buffer 50 mM Tris-HCl pH 7.5, 150 mM NaCl, 1% NP-40; precipitated with HA or FLAG-agarose beads, washed three times, blotted with anti-Flag and anti-HA; remark: listed apart in the source

## BMAL1 with FLAG-tag (from UniProt O00327 1-626)
[1]
  binding: binds weakly

B1: Cryptochrome 1 (CRY1) fused to a luciferase fragment (protein, UniProt Q16526 1-586)
chain: MGVNAVHWFRKGLRLHDNPALKECIQGADTIRCVYILDPWFAGSSNVGINRWRFLLQCLEDLDANLRKLNSRLFVIRGQPADVFPRLFKEWNITKLSIEYDSEPFGKERDAAIKKLATEAGVEVIVRISHTLYDLDKIIELNGGQPPLTYKRFQTLISKMEPLEIPVETITSEVIEKCTTPLSDDHDEKYGVPSLEELGFDTDGLSSAVWPGGETEALTRLERHLERKAWVANFERPRMNANSLLASPTGLSPYLRFGCLSCRLFYFKLTDLYKKVKKNSSPPLSLYGQLLWREFFYTAATNNPRFDKMEGNPICVQIPWDKNPEALAKWAEGRTGFPWIDAIMTQLRQEGWIHHLARHAVACFLTRGDLWISWEEGMKVFEELLLDADWSINAGSWMWLSCSSFFQQFFHCYCPVGFGRRTDPNGDYIRRYLPVLRGFPAKYIYDPWNAPEGIQKVAKCLIGVNYPKPMVNHAEASRLNIERMKQIYQQLSRYRGLGLLASVPSNPNGNGGFMGYSAENIPGCSSSGSCSQGSGILHYAHGDSQQTHLLKQGRSSMGTGLSGGKRPSQEEDTQSIGPKVQRQSTN
[2]
  binding: binds

B2: CRY1 with FLAG-tag (protein, UniProt Q16526 1-586)
chain: MGVNAVHWFRKGLRLHDNPALKECIQGADTIRCVYILDPWFAGSSNVGINRWRFLLQCLEDLDANLRKLNSRLFVIRGQPADVFPRLFKEWNITKLSIEYDSEPFGKERDAAIKKLATEAGVEVIVRISHTLYDLDKIIELNGGQPPLTYKRFQTLISKMEPLEIPVETITSEVIEKCTTPLSDDHDEKYGVPSLEELGFDTDGLSSAVWPGGETEALTRLERHLERKAWVANFERPRMNANSLLASPTGLSPYLRFGCLSCRLFYFKLTDLYKKVKKNSSPPLSLYGQLLWREFFYTAATNNPRFDKMEGNPICVQIPWDKNPEALAKWAEGRTGFPWIDAIMTQLRQEGWIHHLARHAVACFLTRGDLWISWEEGMKVFEELLLDADWSINAGSWMWLSCSSFFQQFFHCYCPVGFGRRTDPNGDYIRRYLPVLRGFPAKYIYDPWNAPEGIQKVAKCLIGVNYPKPMVNHAEASRLNIERMKQIYQQLSRYRGLGLLASVPSNPNGNGGFMGYSAENIPGCSSSGSCSQGSGILHYAHGDSQQTHLLKQGRSSMGTGLSGGKRPSQEEDTQSIGPKVQRQSTN
[3]
  binding: binds

B3: CRY2 with FLAG-tag (protein, UniProt Q49AN0 1-593)
chain: MAATVATAAAVAPAPAPGTDSASSVHWFRKGLRLHDNPALLAAVRGARCVRCVYILDPWFAASSSVGINRWRFLLQSLEDLDTSLRKLNSRLFVVRGQPADVFPRLFKEWGVTRLTFEYDSEPFGKERDAAIMKMAKEAGVEVVTENSHTLYDLDRIIELNGQKPPLTYKRFQAIISRMELPKKPVGLVTSQQMESCRAEIQENHDETYGVPSLEELGFPTEGLGPAVWQGGETEALARLDKHLERKAWVANYERPRMNANSLLASPTGLSPYLRFGCLSCRLFYYRLWDLYKKVKRNSTPPLSLFGQLLWREFFYTAATNNPRFDRMEGNPICIQIPWDRNPEALAKWAEGKTGFPWIDAIMTQLRQEGWIHHLARHAVACFLTRGDLWVSWESGVRVFDELLLDADFSVNAGSWMWLSCSAFFQQFFHCYCPVGFGRRTDPSGDYIRRYLPKLKAFPSRYIYEPWNAPESIQKAAKCIIGVDYPRPIVNHAETSRLNIERMKQIYQQLSRYRGLCLLASVPSCVEDLSHPVAEPSSSQAGSMSSAGPRPLPSGPASPKRKLEAAEEPPGEELSKRARVAELPTPELPSKDA
[3]
  binding: binds
